Experimental data from patent CN109021107A.
These are yes or no findings as the source states them, for the method shown. Some results given as binding are weak or reduced against the parent protein; the word gives no strength.

Amino acid sequences for entries named in this document (tags omitted). Residues count along the entry.
UniProt Q9NZQ7, residues 19-290: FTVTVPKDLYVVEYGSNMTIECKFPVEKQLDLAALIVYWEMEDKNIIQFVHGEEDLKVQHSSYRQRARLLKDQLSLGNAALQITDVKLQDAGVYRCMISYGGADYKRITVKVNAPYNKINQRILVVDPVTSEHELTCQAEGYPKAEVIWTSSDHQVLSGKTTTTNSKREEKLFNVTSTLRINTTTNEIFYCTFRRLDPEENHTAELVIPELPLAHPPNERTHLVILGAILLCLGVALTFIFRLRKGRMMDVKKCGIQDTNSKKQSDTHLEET

Target: PD-L1 on PD-L1 overexpressing cells (human) (UniProt Q9NZQ7)
Assay: phage cell-binding ELISA on PD-L1 overexpressing cells, anti-M13-HRP

B1: HUL03 scFv displayed on phage (scFv)
scFv: EVQLQESGPGLVKPSQTLSLTCTVSGDSFSSGYWNWIRQHPGKGLEYIGYVSYTGSTYYIPSLKSRVTISRDTSKNQFSLKLSSVTAADTAVYYCAGYRDWLHGYFDYWGQGTTVTVSSGGGGSGGGGSGGGGSDIQMTQSPSSLSASVGDRVTITCKASQNVGTNVAWYQQKPGKAPKRLIYSASYRFSGVPSRFSGSGSGTEFTLTISSLQPEDFATYYCQQYNSYPLTFGQGTKLEIK
Q: How did the binding turn out when B1 was run?
A: binds
